This series has as its system sunflower hybrids (A122T homozygous, A122T/A205V, A122T/WT, A205V checks). The series is described as follows: Multi-location field evaluation of the A122T trait, crop injury versus A205V checks, Example 9. It counts as in vivo, Helianthus annuus.
The mark [1] stands for this setting: A122T homozygous hybrids (CLHA-Plus homozygous).
Setting [2] is: A122T/A205V heterozygous hybrids (CLHA-Plus/IMISUN).
Setting [3] is: A122T/WT heterozygous hybrids (CLHA-Plus/WT).

Some results come without the dose or concentration used.

Turning to `CC(C)C1(C)N=C(c2ncccc2C(=O)O)NC1=O` (stereo not shown) [imazapyr], the “slope b of regression of crop injury (PI) on mean PI of A205V checks” value is 0.20±0.06 under setting [1], 0.26±0.07 under setting [2] and 0.55±0.18 under setting [3].
Regarding `COCc1cnc(C2=NC(C)(C(C)C)C(=O)N2)c(C(=O)O)c1` (stereo not shown) [imazamox], the “slope b of regression of crop injury (PI) on mean PI of A205V checks” value is, setting by setting: under setting [1], 0.149±0.0667; under setting [2], 1.39±0.05; under setting [3], 0.45±0.062. Besides, the “y-intercept a of regression of crop injury (PI) on mean PI of A205V checks” value (A122T/WT heterozygous hybrids) is 15.3±2.67.

Source of the values: patent publication US20150148235A1, “HERBICIDE-RESISTANT SUNFLOWER PLANTS WITH MULTIPLE HERBICIDE RESISTANT ALLELES OF AHASL1 AND METHODS OF USE” (NIDERA S.A., priority 2013, published 2015).
